This passage reports binding results from paper PMC8482512.

The chains behind the UniProt entries cited, without tags or fusion partners. Where a name states a change or a piece, a line headed by the entry shows the natural chain unless it says otherwise.
UniProt Q04689: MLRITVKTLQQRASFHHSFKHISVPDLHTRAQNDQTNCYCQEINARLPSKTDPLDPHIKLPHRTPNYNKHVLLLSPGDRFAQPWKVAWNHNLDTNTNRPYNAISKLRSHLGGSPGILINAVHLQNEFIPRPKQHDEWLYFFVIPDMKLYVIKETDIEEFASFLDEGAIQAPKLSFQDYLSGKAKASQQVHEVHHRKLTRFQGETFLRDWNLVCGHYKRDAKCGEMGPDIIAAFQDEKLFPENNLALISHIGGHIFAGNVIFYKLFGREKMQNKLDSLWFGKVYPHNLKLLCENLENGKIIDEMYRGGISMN

These are yes or no findings as the source states them, for the method shown. Binding seen in cells or lysates may run through a third protein. A result given as binding can be weak or reduced; the word gives no strength.

Assay [1] has as its target Aim32 with a C-terminal FLAG tag (Aim32-FLAG) (S. cerevisiae) (UniProt Q04689). Put plainly: co-IP; mitochondrial lysate of Δaim32 [pAIM32-FLAG], ANTI-FLAG M2 affinity gel (FLAG-resin), immunoblot with the indicated antibodies.
The target in assay [2] is Aim32 with the HisPC (CNAP) tag on the C terminus (Aim32-HisPC) (S. cerevisiae) (UniProt Q04689). Put plainly: pull-down; tandem affinity purification (CNAP) of Aim32-HisPC: lysate on Ni2+-agarose, eluted with 300 mM imidazole, then anti-protein C resin; immunoblot. A general note: In western blotting, separated proteins are transferred to a membrane and probed.

B1: Mia40 (protein, UniProt P36046 32-403)
chain: MASSPQFGRNSNQEKTAGFIMGILSMAGALYFIAPNRKPLFASRKVESDKTAEEELSSGGEQSPENEDDNNSKSDENGDDNDSKNDETEAGPQLGGDKIGASKVAEDGELVVLAEEDNKSSEDKDTDESKVSTKDDEQSNEDNATANNQKDENISSENSEENTSDKTLDNNAGSSEKKDPEHSDDEKSQQGQSDDKTTTEDNNGEEESSKKTVSDSENSAKQSESSDEEKEELRKQEEKQMGPTEEEVQHEGAYNPDTGEINWDCPCLGGMAHGPCGEEFKSAFSCFVYSEAEPKGIDCVEKFQHMQDCFRKYPEHYAEQLKETSDDEEPQDKVKVNTIESAPNVSSAKENAAKKAEQSDVKKEPLNEESKP
On to B1, for which the binding result in assay [1] is recorded as “binds”; in assay [2], “no binding”.

B2: Erv1 (enzyme, UniProt P27882 1-189)
chain: MKAIDKMTDNPPQEGLSGRKIIYDEDGKPCRSCNTLLDFQYVTGKISNGLKNLSSNGKLAGTGALTGEASELMPGSRTYRKVDPPDVEQLGRSSWTLLHSVAASYPAQPTDQQKGEMKQFLNIFSHIYPCNWCAKDFEKYIRENAPQVESREELGRWMCEAHNKVNKKLRKPKFDCNFWEKRWKDGWDE
As to B2, in assay [2], the binding entry is recorded as “no binding”.

B3: Osm1 (enzyme, UniProt P21375 33-501)
chain: MKQPVVVIGSGLAGLTTSNRLISKYRIPVVLLDKAASIGGNSIKASSGINGAHTDTQQNLKVMDTPELFLKDTLHSAKGRGVPSLMDKLTKESKSAIRWLQTEFDLKLDLLAQLGGHSVPRTHRSSGKLPPGFEIVQALSKKLKDISSKDSNLVQIMLNSEVVDIELDNQGHVTGVVYMDENGNRKIMKSHHVVFCSGGFGYSKEMLKEYSPNLIHLPTTNGKQTTGDGQKILSKLGAELIDMDQVQVHPTGFIDPNDRENNWKFLAAEALRGLGGILLHPTTGRRFTNELSTRDTVTMEIQSKCPKNDNRALLVMSDKVYENYTNNINFYMSKNLIKKVSINDLIRQYDLQTTASELVTELKSYSDVNTKDTFDRPLIINAFDKDISTESTVYVGEVTPVVHFTMGGVKINEKSQVIKKNSESVLSNGIFAAGEVSGGVHGANRLGGSSLLECVVFGKTAADNIAKLY
Turning to B3, the binding entry in assay [2] is “binds”.
